Data as given in the supplement of paper PMC10331698.
± gives the standard deviation of the averaged measurements. Most values lie at the level of the controls, where differences are scatter.

Legend:
Assay in all cases: level (log10 ratio to DMSO vehicle control); higher = higher biomarker level / cell amount than vehicle control
[1] = compound: OCCCCC(F)(F)C(F)(F)C(F)(F)C(F)(F)F [4:4 Fluorotelomer alcohol]; conditions: 2200 nM; in DMSO
Protocol: (§1)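 BioMAP Diversity Plus panel of 12 human primary cell co-culture systems (3C, 4H, LPS, SAg, BT, BF4T, BE3C, CASM3C, HDF3CGF, KF3CT, MyoF, Mphg). Compounds were added 1 h before stimulation and left for 24 h (MyoF 48 h; BT 72 h for soluble read-outs or 6 d for IgG). Biomarkers were read by ELISA, cytotoxicity by SRB, PBMC viability and proliferation by Alamar Blue. Each well value was divided by the mean of 8 DMSO control wells on the same plate and log10 transformed; duplicate blinded samples were tested at 4 concentrations.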

[2] = compound: OCC(F)(F)C(F)(F)C(F)(F)C(F)(F)C(F)(F)C(F)F [1H,1H,7H-Dodecafluoro-1-heptanol]; conditions: 2200 nM; in DMSO
Protocol: as §1

[3] = compound: C=C(C)C(=O)OCC(F)(F)C(F)(F)C(F)(F)C(F)(F)C(F)(F)C(F)(F)C(F)(F)F; conditions: in DMSO
Protocol: as §1

[4] = compound: FC(F)(F)C(F)(F)C(F)(F)CC1CO1 [1H,1H-Heptafluorobutyl epoxide]; conditions: 2200 nM; in DMSO
Protocol: as §1

[5] = compound: O=S(=O)(F)C(F)(F)C(F)(F)C(F)(F)C(F)(F)C(F)(F)C(F)(F)C(F)(F)C(F)(F)F [Perfluorooctanesulfonyl fluoride]; conditions: 2200 nM; in DMSO
Protocol: as §1

[6] = compound: C=CC(=O)OCC(F)(F)C(F)(F)C(F)(F)C(F)(F)C(F)(F)C(F)(F)C(F)(F)F [1H,1H-Perfluorooctyl acrylate]; conditions: 2200 nM; in DMSO
Protocol: as §1

[7] = compound: C=CC(F)(F)C(F)(F)C(F)(F)C(F)(F)C(F)(F)C(F)(F)C(F)(F)C(F)(F)C=C [1,8-Divinylperfluorooctane]; conditions: in DMSO
Protocol: as §1

[8] = compound: O=S(=O)(O)C(F)(F)C(F)(F)C(F)(F)C(F)(F)C(F)(F)C(F)(F)C(F)(F)C(F)(F)F [Potassium perfluorooctanesulfonate]; conditions: 2200 nM; in DMSO
Protocol: as §1

[9] = compound: NC(=O)C(F)(F)C(F)(F)C(F)(F)C(F)F; conditions: in DMSO
Protocol: as §1

[10] = compound: O=C(O)C(F)(F)C(F)(F)C(F)F [4H-Perfluorobutanoic acid]; conditions: in DMSO
Protocol: as §1

[11] = compound: CO[Si](C)(CCC(F)(F)C(F)(F)C(F)(F)C(F)(F)C(F)(F)C(F)(F)F)OC [Dimethoxymethyl((perfluorohexyl)ethyl)silane]; conditions: in DMSO
Protocol: as §1

[12] = compound: COC(=O)C(F)(F)C(F)(F)OC(F)(C(F)(F)F)C(F)(F)OC(F)=C(F)F [Methyl perfluoro(3-(1-ethenyloxypropan-2-yloxy)propanoate)]; conditions: in DMSO
Protocol: as §1

[13] = compound: O=S(=O)(OCC(F)(F)F)C(F)(F)C(F)(F)C(F)(F)C(F)(F)F [2,2,2-Trifluoroethyl perfluorobutanesulfonate]; conditions: 2200 nM; in DMSO
Protocol: as §1

[14] = compound: FC(F)(F)C(F)(F)C(F)(F)CI [Heptafluorobutyl iodide]; conditions: 2200 nM; in DMSO
Protocol: as §1

[15] = compound: O=P(O)(O)CCC(F)(F)C(F)(F)C(F)(F)C(F)(F)C(F)(F)C(F)(F)F [2-(Perfluorohexyl)ethylphosphonic acid]; conditions: 2200 nM; in DMSO
Protocol: as §1

[16] = compound: NC(=O)C(F)(F)C(F)(F)F [Pentafluoropropionamide]; conditions: 2200 nM; in DMSO
Protocol: as §1

[17] = compound: NS(=O)(=O)C(F)(F)C(F)(F)C(F)(F)C(F)(F)C(F)(F)C(F)(F)C(F)(F)C(F)(F)F [Perfluorooctanesulfonamide]; conditions: in DMSO
Protocol: as §1

[18] = compound: O=S(=O)(O)C(F)(F)C(F)(F)C(F)(F)C(F)(F)C(F)(F)C(F)(F)C(F)(F)C(F)(F)F [Perfluorooctanesulfonic acid]; conditions: 2200 nM; in DMSO
Protocol: as §1

Row | Test System | level (log10) [1] | level (log10) [2] | level (log10) ([3]; 740 nM) | level (log10) ([3]; 2200 nM) | level (log10) [4] | level (log10) [5] | level (log10) [6] | level (log10) ([7]; 740 nM) | level (log10) ([7]; 2200 nM) | level (log10) [8] | level (log10) ([9]; 2200 nM) | level (log10) ([9]; 6700 nM) | level (log10) ([9]; 20000 nM) | level (log10) ([9]; 60000 nM) | level (log10) ([10]; 2200 nM) | level (log10) ([10]; 6700 nM) | level (log10) ([10]; 20000 nM) | level (log10) ([10]; 60000 nM) | level (log10) ([11]; 740 nM) | level (log10) ([11]; 2200 nM) | level (log10) ([12]; 740 nM) | level (log10) ([12]; 2200 nM) | level (log10) [13] | level (log10) [14] | level (log10) [15] | level (log10) [16] | level (log10) ([17]; 2200 nM) | level (log10) ([17]; 6700 nM) | level (log10) ([17]; 20000 nM) | level (log10) [18]
1 | BE3C:CXCL9/MIG | 0.006 ± 0.016 | 0.006 ± 0.0071 | 0.013 ± 0.0028 | 0.001 ± 0.016 | -0.0115 ± 0.012 | 0.0055 ± 0.0078 | -0.002 ± 0.0042 | 0.002 ± 0.011 | -0.006 ± 0.014 | 0.013 ± 0.016 | -0.0015 ± 0.037 | 0.012 ± 0.024 | 0.009 ± 0.0071 | 0.006 ± 0.0085 | -0.002 ± 0.0085 | -0.0015 ± 0.011 | 0.0085 ± 0.022 | 0.0135 ± 0.0092 | -0.0065 ± 0.0064 | -0.003 ± 0.0099 | -0.0015 ± 0.0035 | 0.002 ± 0.0071 | 0.0165 ± 0.016 | -0.009 ± 0.0042 | 0.0045 ± 0.016 | 0.003 ± 0.0071 | -0.0005 ± 0.012 | -0.0015 ± 0.0021 | 0.013 ± 0.013 | 0.015 ± 0.03
2 | BE3C:CXCL10/IP-10 | 0.002 ± 0.0071 | 0.014 ± 0.011 | 0.001 ± 0.011 | 0.0025 ± 0.013 | -0.0105 ± 0.018 | 0.023 ± 0.035 | 0.045 ± 0.0099 | 0 | 0 ± 0.0014 | -0.0095 ± 0.0078 | 0.003 ± 0.0042 | 0.0025 ± 0.0064 | -0.0015 ± 0.016 | 0.007 ± 0.013 | 0 ± 0.023 | -0.006 ± 0.021 | -0.001 ± 0.0099 | 0.017 ± 0.021 | 0.007 ± 0.0042 | -0.001 | 0.024 ± 0.02 | 0.0075 ± 0.012 | 0.026 ± 0.013 | -0.002 ± 0.0071 | -0.016 ± 0.014 | -0.007 ± 0.0057 | -0.03 ± 0.0085 | -0.142 ± 0.0078 | -0.414 ± 0.0028 | 0.0025 ± 0.0078
3 | BE3C:CXCL11/I-TAC | -0.006 ± 0.02 | 0.011 ± 0.034 | 0.001 ± 0.0014 | 0.0025 ± 0.029 | -0.0145 ± 0.0021 | 0.0095 ± 0.005 | 0.024 ± 0.018 | -0.0045 ± 0.0035 | -0.0045 ± 0.0092 | -0.0165 ± 0.00071 | 0 ± 0.014 | 0.005 ± 0.0028 | -0.002 ± 0.0042 | 0.002 ± 0.0057 | 0.01 ± 0.0057 | -0.0015 ± 0.0064 | 0.008 ± 0.014 | 0.031 ± 0.011 | 0.0015 ± 0.019 | -0.007 ± 0.0042 | 0.0305 ± 0.012 | 0.004 ± 0.013 | -0.002 | 0.011 ± 0.017 | 0.004 ± 0.027 | 0.003 ± 0.0099 | -0.02 ± 0.011 | -0.0565 ± 0.013 | -0.183 ± 0.06 | -0.0195 ± 0.005
4 | BE3C:EGFR | 0.0275 ± 0.049 | 0.005 ± 0.0057 | -0.0055 ± 0.015 | -0.0165 ± 0.019 | -0.018 ± 0.0028 | -0.006 ± 0.0057 | 0.007 ± 0.014 | -0.007 ± 0.0014 | -0.023 ± 0.0071 | 0.008 ± 0.018 | 0.0095 ± 0.035 | 0.0055 ± 0.019 | 0.0065 ± 0.032 | -0.008 ± 0.0099 | 0.013 ± 0.0014 | -0.0135 ± 0.011 | -0.0085 ± 0.0064 | 0.032 ± 0.025 | -0.009 ± 0.017 | -0.007 ± 0.0099 | -0.001 ± 0.0042 | 0.004 ± 0.0071 | 0.013 ± 0.0099 | -0.016 ± 0.014 | 0.0015 ± 0.035 | -0.024 ± 0.0057 | -0.007 ± 0.017 | -0.0005 ± 0.00071 | -0.044 ± 0.0014 | -0.003 ± 0.042
5 | BE3C:HLA-DR | 0.006 ± 0.051 | 0.0205 ± 0.033 | 0.002 ± 0.0071 | -0.0075 ± 0.0021 | -0.0005 ± 0.005 | -0.008 ± 0.0071 | -0.0075 ± 0.005 | 0.014 ± 0.028 | 0.005 ± 0.017 | 0.0125 ± 0.026 | 0.003 ± 0.025 | 0.0065 ± 0.016 | 0.008 ± 0.0057 | -0.0025 ± 0.023 | 0.002 ± 0.014 | -0.023 | -0.022 ± 0.0085 | -0.0005 ± 0.028 | 0.019 ± 0.037 | -0.0055 ± 0.025 | -0.003 ± 0.023 | -0.003 ± 0.04 | 0.004 ± 0.016 | -0.022 ± 0.0014 | 0.02 ± 0.027 | -0.0015 ± 0.012 | -0.028 ± 0.014 | -0.0975 ± 0.013 | -0.136 ± 0.011 | -0.0035 ± 0.044
6 | BE3C:IL-1alpha | 0.037 ± 0.04 | 0.0145 ± 0.013 | 0.0205 ± 0.0021 | 0.012 ± 0.021 | 0.028 ± 0.013 | 0.002 ± 0.0028 | -0.0085 ± 0.0078 | 0.029 ± 0.059 | 0.0035 ± 0.029 | 0.013 ± 0.016 | 0.0495 ± 0.049 | 0.0235 ± 0.016 | -0.008 ± 0.0085 | 0.015 ± 0.065 | -0.022 ± 0.0042 | -0.0325 ± 0.0064 | -0.018 ± 0.025 | -0.0045 ± 0.079 | 0.0215 ± 0.053 | 0.0095 ± 0.036 | 0.005 ± 0.055 | -0.012 ± 0.016 | -0.009 ± 0.02 | -0.006 ± 0.02 | 0.005 ± 0.033 | 0.0225 ± 0.032 | 0.032 ± 0.033 | -0.005 ± 0.023 | -0.066 ± 0.017 | 0.011 ± 0.042
7 | BE3C:Keratin 8/18 | -0.005 ± 0.018 | -0.0005 ± 0.0064 | 0.0045 ± 0.016 | -0.0125 ± 0.0064 | -0.007 ± 0.018 | -0.0055 ± 0.00071 | -0.016 ± 0.027 | -0.007 ± 0.018 | -0.013 ± 0.0014 | 0.0125 ± 0.018 | -0.009 ± 0.028 | -0.0045 ± 0.0092 | -0.0025 ± 0.005 | -0.0185 ± 0.033 | -0.0125 ± 0.019 | -0.017 ± 0.014 | -0.021 ± 0.011 | 0.0075 ± 0.00071 | 0.001 ± 0.023 | 0.023 ± 0.0014 | 0.0035 ± 0.037 | 0.0035 ± 0.022 | -0.0075 ± 0.0064 | -0.008 ± 0.0085 | -0.001 ± 0.018 | -0.007 ± 0.0028 | -0.0205 ± 0.012 | -0.0475 ± 0.013 | -0.0185 ± 0.0021 | 0.005 ± 0.038
8 | BE3C:MMP-1 | 0.001 ± 0.018 | 0.027 ± 0.057 | 0.0135 ± 0.00071 | 0.013 ± 0.016 | 0.013 ± 0.011 | -0.0185 ± 0.0035 | -0.007 ± 0.02 | 0.0165 ± 0.094 | 0.004 ± 0.045 | 0.0595 ± 0.063 | 0.0085 ± 0.088 | 0.003 ± 0.054 | -0.001 ± 0.0014 | 0.024 ± 0.0057 | -0.007 ± 0.0014 | -0.033 ± 0.059 | -0.0175 ± 0.0035 | 0.008 ± 0.051 | 0.011 ± 0.072 | -0.0055 ± 0.047 | 0.0365 ± 0.005 | 0.0575 ± 0.025 | -0.007 ± 0.0071 | -0.0015 ± 0.013 | 0.041 ± 0.065 | 0.0345 ± 0.083 | 0.007 ± 0.044 | 0.084 ± 0.021 | 0.154 ± 0.014 | 0.0515 ± 0.088
